Laboratory results from PubChem BioAssay AID1347423 (Functional Genomics Laboratory (NCATS/FGL), 2020).
Screen size: about 52,000 sequences; about 210 (0.4%) were called active.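 The calls were made as follows: active = gene whose silencing raises cell survival under the drug, median off-target-corrected z-score across its silencing RNAs 2 or more; inactive = the rest.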 Some of the results follow.

Assay: Resistance to Poly (ADP-Ribose) Polymerase inhibitor: Gene Identification via Genome-wide siRNA Screen
Settings: mouse BRCA2 R2336H ES cells, olaparib, CellTiter-Glo viability; hits give high values
Procedure, shortened: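 Mouse BRCA2 R2336H ES cells were reverse-transfected with siRNA (20 nM final), treated at 48 h with 500 nM olaparib, and read by CellTiter-Glo after 72 h. Scores: MAD-based z per siRNA, median per gene, seed off-target correction.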

Row | Sequence | z-score
1 | GGAUAAUAAUCACUACAUGTT against Mov10l1 | inactive: -1.34
2 | CCAGACAUUGUCUUUAUGGTT against Xrn1 | inactive: -0.483
3 | CCAGUAAAGUAGGUUUUCUTT against D830032G16Rik | inactive: 0.919
4 | GGCUGUGGUCAAGAUCAAGTT against Atp2b2 | inactive: 0.46
5 | CCAAGAUCACAUACCGUGATT against Acas2 | inactive: -0.0971
6 | GGAAGACAAAGAUUCUAGUTT against Abcc1 | inactive: -0.414
7 | GCCACCUCAAAUAACCGUCTT against Lat | inactive: 0.617
8 | GCGGAGUGUGAAACACUGATT against Gm631 | inactive: 0.284
9 | GGGUUAACUUUUACUAUGGTT against Olfr570 | inactive: 1.19
10 | GCUUUCAGCUAUUGGACCCTT against Kl | inactive: 0.583
11 | GGUCUGUCUCCAGAUUGCUTT against Olfr56 | inactive: -1.13
12 | GGAUACAGGUUUGAGAUAUTT against 1810049K24Rik | inactive: 0.768
13 | GGCUCUUCCAACAGUUCUUTT against Grk1 | inactive: -0.959
14 | GGCGGAAAAAGUGGAUAAUTT against Epim | inactive: -1.32
15 | GCAGUUCUACUCUUACACCTT against Xylt1 | inactive: -0.599
16 | GGUAGAUGACUUUGACAACTT against Tnfsf9 | inactive: 0.308
17 | GGUCCCAACGAAGAAACCATT against Daf1 | inactive: -0.321
18 | GGGAAUUGCCAACUUGUUCTT against Olfr639 | inactive: 1.27
19 | CCACCCUGUAUGAAUUUCUTT against Dscr6 | inactive: -1.41
20 | GGAUCUGUACCAUAGUGACTT against 2810489O06Rik | inactive: 0.249
21 | GGGUACUGUAAAUUGGUCUTT against Kpna2 | inactive: -0.826
22 | CCCUAAGAGUCACCAAAAUTT against Nos2 | inactive: -0.824
23 | GGAAACAAAGUCAAUGUGGTT against Cnn1 | inactive: 0.12
24 | GGCAUAUACAAGGUAUUCUTT against Olfr393 | inactive: 1.18
25 | GGAUAACUCAUUCAGAAUGTT against Capn7 | inactive: 0.234
26 | GUUUGAGUCUGGAGACGUGTT against Commd4 | inactive: -1.55

Row | Sequence | z-score
27 | GGACUCUGCUUCCAUACUGTT against 9430086K21Rik | inactive: -0.798
28 | GGUCGAGCCAAGAAUUUGUTT against Pigo | inactive: 1.21
29 | GGAAAUCAGAGAAUACUUCTT against 5730414C17Rik | inactive: -0.0285
30 | GGACCAUAGAUGAGAAAAGTT against Rfrp | inactive: 0.12
31 | GCACCCAUAAGUUCUUAUATT against Hif1an | inactive: -0.772
32 | GCAGCUGCACUAAAGAACGTT against Dlgh1 | inactive: 0.411
33 | GGAGCUAGUAUUGAGCAACTT against Rnh1 | inactive: 1.28
34 | GGAUCACAGUCUCUUCGGUTT against Fgf20 | inactive: -0.475
35 | CGGAACAAUUCCAAGAAACTT against Isl2 | inactive: 0.324
36 | GCCACAGUGACUAUACUAGTT against Cdh16 | inactive: 1.4
37 | GCCUCUCCCUACGGUAAAUTT against 4933425A18Rik | inactive: 0.697
38 | GCAGGAUUUUCACCAACAGTT against Gh | inactive: -1.63
39 | GGAAUGCUUACACACCUCATT against Galns | inactive: 0.34
40 | GGGAGAAAAAAUCCACGAGTT against Tubg1 | inactive: -1.39
41 | GCGACGGAAGUCUUUAUUATT against LOC329416 | inactive: 0.264
42 | GGCCAAGAACUCUCUCAUGTT against Es2el | inactive: 0.304
43 | GCUGAGAGUUAAUUGAGCATT against Abcg8 | inactive: 1.75
44 | CCCACAUGUCCCGUCUUAUTT against 4930429B21Rik | inactive: -2.73
45 | GCCAUAUACAGGUUCAAAGTT against Msh6 | inactive: 0.613
46 | GGAUGUUACGAAGAAGAUUTT against Ash1l | inactive: -0.231
47 | GGACUGUUAACUCUUGGCGTT against Slc7a1 | inactive: 1.67
48 | GGCCAGGACACUCAAAAACTT against A030003A19Rik | inactive: 0.143
49 | GGUCAAAAUGACCAAGGAUTT against Cte1 | inactive: -1.86
50 | GGUCUUGCUGUUCGAAGAATT against Gsh1 | inactive: -1.15
51 | GCCUGUCACUUUCUGAUAATT against Tpm2 | inactive: -1.45
52 | CGAGGUGAUUAAAGAGAUGTT against D630044F24Rik | inactive: 0.603

Row | Sequence | z-score
53 | GCUAUUGUAACACCUCAGGTT against Lef1 | inactive: -1.48
54 | GGAUCUUGUGUUGUAUAAATT against Etv3 | inactive: -0.0977
55 | GGCAAUAGAAACUUUUGGUTT against V1rh1 | inactive: 0.759
56 | GCUCUCGUCACUGUGUUACTT against Paip2 | inactive: 0.0718
57 | GGACAAUAUAGGAUCAACATT against Kmo | inactive: 0.118
58 | GGUGAAGUCUUACCUAUACTT against Aacs | inactive: -0.387
59 | GGAUUCUGUGAUUUGUCUATT against Tesp1 | inactive: -0.217
60 | CCUUCAUUGGUUAGCAUGUTT against Rbl2 | inactive: 1.6
61 | GCCGACCACAGUACAAGACTT against Bivm | inactive: 0.997
62 | GGCUCUAAUGUAAUGAAUCTT against Fgf10 | inactive: 0.576
63 | GGGACGGAGAAAAGCUUUUTT against Olfr419 | inactive: 0.731
64 | CCUCAUUCUGUAAAAGAGATT against Hpcal4 | inactive: 0.0828
65 | CCUGUGUUCUGACCUAGAGTT against Hes6 | inactive: 0.377
66 | GGGAAGAAAUAAAAGAAACTT against 1110020L19Rik | inactive: 0.725
67 | GGCUCUAAAGAGACACCUUTT against Olfr498 | inactive: 0.17
68 | GGAAAAGCUACAUUACUUCTT against Trim31 | inactive: 0.744
69 | CCAAGUCUAAAGGGAAUGGTT against S100a9 | inactive: 1.83
70 | CGACCGUUUUAAAUCAUAATT against C5r1 | inactive: 0.93
71 | GGUCAUGUUAAAGGAAUCATT against 4933403F05Rik | inactive: 0.531
72 | GGCAUUAACCUGAGAUGAUTT against Sprr2i | inactive: -0.904
73 | CCGGAAACGGAUCAUUUCATT against Galntl4 | inactive: 0.0908
74 | GCUGCUCAGUUUCUUCCAATT against Hist1h4i | inactive: -1.05
75 | CCACUUCAUGAUUGAGUGCTT against 4921501E09Rik | inactive: 0.608
76 | GUGUUCAGGAAGCUGGCAGTT against Klra19 | inactive: 0.55
77 | CCUAAUCAAAGGCACUAGATT against 0910001K20Rik | inactive: -0.578
78 | GGAGAUGAAAUAAAGUGGATT against Bucs1 | inactive: -0.159

Row | Sequence | z-score
79 | CCAUAUGAGAAGAUGACACTT against Pdcl2 | inactive: -0.0774
80 | CCCAUAAGGGUGAAAUUCGTT against Tax1bp1 | inactive: 0.199
81 | GGAGACAUGCAAUGAACUUTT against 1700030B17Rik | inactive: 0.65
82 | GGAAAAGAGCCUCACAGACTT against Cocoacrisp | inactive: -0.151
83 | GGUCAAUUAAGAGAAAUGUTT against 4833417A11Rik | inactive: -0.0489
84 | CCAUCAAACGGAUCCAGCATT against Rkhd1 | inactive: -2.66
85 | GGUUUUCUCGCUCAGACCATT against Wt1 | inactive: -0.969
86 | GCCUGUCCUGUGAUGACAUTT against Olfr406 | inactive: -2.3
87 | CCCAGAUCAGAUUAUUUGGTT against 1700055N04Rik | inactive: 0.562
88 | GGUGCUGCCAAGAUCUCUUTT against C230043N17Rik | inactive: -2.28
89 | GGCUUACAGUUCCAUAUGGTT against Olfr401 | inactive: 1.13
90 | GGUGAAAUGCUUGACUAAATT against 2510010F15Rik | inactive: -0.68
91 | GGUCAUGAUACAUGAUCCATT against Htr7 | inactive: -0.0936
92 | GCUAGGACUCAUAAUUUCCTT against Abcc4 | inactive: 0.386
93 | GGAGGAAGAAUUUAUUGCATT against Ly6i | inactive: -0.64
94 | GGUUAUGUUUUGUCACUCUTT against 1810073N04Rik | inactive: 0.362
95 | GGGAUUCCAAAAGAAGAAGTT against Acat1 | inactive: -0.948
96 | GGGAUACUUGGUGAAUUGGTT against Actr6 | inactive: -0.314
97 | GGCCCUAACAAUUCAUGAUTT against 5730469D23Rik | inactive: -0.767
98 | GGACAAUUGUGACCUCAGATT against BC025833 | inactive: -0.0716
99 | CGAAAUGUUUGGUCAGAUCTT against Masp1 | inactive: 0.166
100 | CCCUAUCGUGAUUUAUUGGTT against C130073F10Rik | inactive: 0.977
101 | GGAGCUGAUCCUGAAUCACTT against Tpbg | inactive: 1.65
102 | GGUAUCAGAGAGCACUUCATT against Surf2 | inactive: 1.63
103 | GGAAAAUUCCAGAAACCAUTT against BC004636 | inactive: -0.421
104 | GCGGCAACAUUCUCUUAAGTT against 1200013B22Rik | inactive: -0.522

Given as comma-separated lines: entries from further up
Row,Sequence,z-score
75,CCACUUCAUGAUUGAGUGCTT against 4921501E09Rik,inactive: 0.608
76,GUGUUCAGGAAGCUGGCAGTT against Klra19,inactive: 0.55
77,CCUAAUCAAAGGCACUAGATT against 0910001K20Rik,inactive: -0.578
78,GGAGAUGAAAUAAAGUGGATT against Bucs1,inactive: -0.159
79,CCAUAUGAGAAGAUGACACTT against Pdcl2,inactive: -0.0774
80,CCCAUAAGGGUGAAAUUCGTT against Tax1bp1,inactive: 0.199
81,GGAGACAUGCAAUGAACUUTT against 1700030B17Rik,inactive: 0.65
82,GGAAAAGAGCCUCACAGACTT against Cocoacrisp,inactive: -0.151
83,GGUCAAUUAAGAGAAAUGUTT against 4833417A11Rik,inactive: -0.0489
84,CCAUCAAACGGAUCCAGCATT against Rkhd1,inactive: -2.66
85,GGUUUUCUCGCUCAGACCATT against Wt1,inactive: -0.969
86,GCCUGUCCUGUGAUGACAUTT against Olfr406,inactive: -2.3
87,CCCAGAUCAGAUUAUUUGGTT against 1700055N04Rik,inactive: 0.562
88,GGUGCUGCCAAGAUCUCUUTT against C230043N17Rik,inactive: -2.28
89,GGCUUACAGUUCCAUAUGGTT against Olfr401,inactive: 1.13
90,GGUGAAAUGCUUGACUAAATT against 2510010F15Rik,inactive: -0.68
91,GGUCAUGAUACAUGAUCCATT against Htr7,inactive: -0.0936
92,GCUAGGACUCAUAAUUUCCTT against Abcc4,inactive: 0.386
93,GGAGGAAGAAUUUAUUGCATT against Ly6i,inactive: -0.64
94,GGUUAUGUUUUGUCACUCUTT against 1810073N04Rik,inactive: 0.362
95,GGGAUUCCAAAAGAAGAAGTT against Acat1,inactive: -0.948
96,GGGAUACUUGGUGAAUUGGTT against Actr6,inactive: -0.314
97,GGCCCUAACAAUUCAUGAUTT against 5730469D23Rik,inactive: -0.767
98,GGACAAUUGUGACCUCAGATT against BC025833,inactive: -0.0716
99,CGAAAUGUUUGGUCAGAUCTT against Masp1,inactive: 0.166
100,CCCUAUCGUGAUUUAUUGGTT against C130073F10Rik,inactive: 0.977
101,GGAGCUGAUCCUGAAUCACTT against Tpbg,inactive: 1.65
